These are yes or no findings as the source states them, for the method shown. Some binding calls cover weakened binding; strength is not graded here.
B1: SIAH2 (enzyme, UniProt O43255 1-324)
chain: MSRPSSTGPSANKPCSKQPPPQPQHTPSPAAPPAAATISAAGPGSSAVPAAAAVISGPGGGGGAGPVSPQHHELTSLFECPVCFDYVLPPILQCQAGHLVCNQCRQKLSCCPTCRGALTPSIRNLAMEKVASAVLFPCKYATTGCSLTLHHTEKPEHEDICEYRPYSCPCPGASCKWQGSLEAVMSHLMHAHKSITTLQGEDIVFLATDINLPGAVDWVMMQSCFGHHFMLVLEKQEKYEGHQQFFAIVLLIGTRKQAENFAYRLELNGNRRRLTWEATPRSIHDGVAAAIMNSDCLVFDTAIAHLFADNGNLGINVTISTCCP

The chains behind the UniProt entries cited, without tags or fusion partners.
UniProt Q93009: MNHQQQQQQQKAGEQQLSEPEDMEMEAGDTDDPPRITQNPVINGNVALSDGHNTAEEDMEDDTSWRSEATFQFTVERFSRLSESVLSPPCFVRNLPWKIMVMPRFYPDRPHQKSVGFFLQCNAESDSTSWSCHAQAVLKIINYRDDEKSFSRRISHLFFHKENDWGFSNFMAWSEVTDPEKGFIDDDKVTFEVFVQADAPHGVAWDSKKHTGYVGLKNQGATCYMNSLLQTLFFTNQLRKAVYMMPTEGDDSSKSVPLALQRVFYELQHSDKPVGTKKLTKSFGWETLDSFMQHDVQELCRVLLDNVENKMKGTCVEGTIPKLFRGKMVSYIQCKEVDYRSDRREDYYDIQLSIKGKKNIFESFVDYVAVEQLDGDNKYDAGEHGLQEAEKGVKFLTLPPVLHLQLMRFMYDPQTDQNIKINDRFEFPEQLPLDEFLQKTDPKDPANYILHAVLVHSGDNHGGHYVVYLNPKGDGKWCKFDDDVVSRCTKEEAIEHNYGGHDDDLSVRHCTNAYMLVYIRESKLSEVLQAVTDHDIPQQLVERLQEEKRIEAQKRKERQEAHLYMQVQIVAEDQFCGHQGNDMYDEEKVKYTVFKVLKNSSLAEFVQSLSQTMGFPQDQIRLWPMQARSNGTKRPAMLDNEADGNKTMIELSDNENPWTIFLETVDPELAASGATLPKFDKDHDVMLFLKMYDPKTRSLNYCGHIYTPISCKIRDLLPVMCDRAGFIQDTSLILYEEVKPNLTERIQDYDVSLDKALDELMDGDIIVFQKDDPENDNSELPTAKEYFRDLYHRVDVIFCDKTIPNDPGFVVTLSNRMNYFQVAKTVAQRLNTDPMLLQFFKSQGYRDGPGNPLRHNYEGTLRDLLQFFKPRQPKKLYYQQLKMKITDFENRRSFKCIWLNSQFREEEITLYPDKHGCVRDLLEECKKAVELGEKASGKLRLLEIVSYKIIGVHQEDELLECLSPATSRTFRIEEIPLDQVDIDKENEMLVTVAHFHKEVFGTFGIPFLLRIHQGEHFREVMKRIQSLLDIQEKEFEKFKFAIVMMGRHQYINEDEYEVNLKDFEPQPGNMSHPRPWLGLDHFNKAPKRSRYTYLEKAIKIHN
UniProt P63279: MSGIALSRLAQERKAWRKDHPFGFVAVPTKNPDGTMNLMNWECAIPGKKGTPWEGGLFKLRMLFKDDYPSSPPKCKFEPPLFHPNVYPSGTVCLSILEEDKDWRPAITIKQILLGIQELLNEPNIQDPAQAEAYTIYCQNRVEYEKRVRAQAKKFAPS

biological target: T1, PiT1/SLC20A1 (UniProt Q8WUM9); assay: two-hybrid; yeast two-hybrid screen 'performed by our group', told only in the discussion without citation or methods; bait, library and conditions not told
T1 sequence: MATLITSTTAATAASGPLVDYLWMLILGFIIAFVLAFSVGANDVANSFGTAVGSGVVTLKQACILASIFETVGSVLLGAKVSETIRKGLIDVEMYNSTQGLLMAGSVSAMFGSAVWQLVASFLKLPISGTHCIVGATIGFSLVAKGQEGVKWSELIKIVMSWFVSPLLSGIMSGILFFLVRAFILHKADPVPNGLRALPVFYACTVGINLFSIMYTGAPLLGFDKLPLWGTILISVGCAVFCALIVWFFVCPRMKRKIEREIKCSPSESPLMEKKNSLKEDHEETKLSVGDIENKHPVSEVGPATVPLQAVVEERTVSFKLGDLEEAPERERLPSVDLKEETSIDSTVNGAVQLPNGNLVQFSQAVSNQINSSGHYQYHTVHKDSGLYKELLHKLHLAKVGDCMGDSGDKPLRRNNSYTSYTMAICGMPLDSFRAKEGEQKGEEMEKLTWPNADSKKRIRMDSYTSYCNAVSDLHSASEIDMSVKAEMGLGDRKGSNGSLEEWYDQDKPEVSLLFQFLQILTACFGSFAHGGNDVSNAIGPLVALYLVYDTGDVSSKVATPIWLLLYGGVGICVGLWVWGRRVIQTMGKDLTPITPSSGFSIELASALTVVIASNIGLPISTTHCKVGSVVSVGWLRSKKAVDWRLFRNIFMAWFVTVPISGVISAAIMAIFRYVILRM

binding, binds:
USP7 (from UniProt Q93009 1-1102) (enzyme)
UBC9 (from UniProt P63279 1-158) (enzyme)
B1

Reference: paper PMC6372663
